Reference: the supplement of paper PMC10032668
This is one part of the list. The list holds hits alone, and they repeat only in part.

The chains behind the UniProt entries cited, without tags or fusion partners.
EIF3K, Q9UBQ5, UniProt Q9UBQ5, whole entry: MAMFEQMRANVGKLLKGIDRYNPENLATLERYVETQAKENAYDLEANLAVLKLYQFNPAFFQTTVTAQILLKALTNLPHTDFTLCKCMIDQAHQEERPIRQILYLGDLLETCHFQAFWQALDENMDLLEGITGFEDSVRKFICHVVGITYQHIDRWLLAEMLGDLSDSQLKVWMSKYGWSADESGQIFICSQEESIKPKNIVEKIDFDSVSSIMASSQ
ELOC, Q15369, UniProt Q15369, whole entry: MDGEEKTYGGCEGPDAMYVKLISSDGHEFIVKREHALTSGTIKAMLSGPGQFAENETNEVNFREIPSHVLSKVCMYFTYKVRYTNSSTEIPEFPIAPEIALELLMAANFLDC
CAMK2D, Q13557, UniProt Q13557, whole entry: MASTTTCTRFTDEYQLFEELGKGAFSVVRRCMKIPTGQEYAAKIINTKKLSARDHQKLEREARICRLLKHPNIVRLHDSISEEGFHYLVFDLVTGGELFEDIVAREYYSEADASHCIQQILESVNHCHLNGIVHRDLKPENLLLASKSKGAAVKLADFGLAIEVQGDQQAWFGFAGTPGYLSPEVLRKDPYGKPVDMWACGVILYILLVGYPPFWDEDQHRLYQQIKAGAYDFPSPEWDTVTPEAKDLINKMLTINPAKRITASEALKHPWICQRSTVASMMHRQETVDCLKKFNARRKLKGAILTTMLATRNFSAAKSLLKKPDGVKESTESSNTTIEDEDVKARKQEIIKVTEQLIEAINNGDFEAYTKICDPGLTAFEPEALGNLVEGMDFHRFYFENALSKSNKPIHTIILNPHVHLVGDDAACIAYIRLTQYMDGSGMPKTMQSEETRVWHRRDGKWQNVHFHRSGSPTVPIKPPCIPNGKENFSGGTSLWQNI
MAPK1, P28482, UniProt P28482, whole entry: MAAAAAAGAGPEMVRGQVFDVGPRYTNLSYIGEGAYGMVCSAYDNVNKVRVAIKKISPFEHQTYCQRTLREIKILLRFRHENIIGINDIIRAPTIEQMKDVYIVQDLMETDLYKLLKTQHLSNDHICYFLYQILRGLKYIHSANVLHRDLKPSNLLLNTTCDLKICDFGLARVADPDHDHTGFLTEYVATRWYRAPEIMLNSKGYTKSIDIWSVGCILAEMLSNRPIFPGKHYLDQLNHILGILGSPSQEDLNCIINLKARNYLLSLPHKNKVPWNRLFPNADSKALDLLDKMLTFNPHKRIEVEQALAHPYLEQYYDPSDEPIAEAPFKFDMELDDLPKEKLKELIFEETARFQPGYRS
PAXIP1, Q6ZW49, UniProt Q6ZW49, whole entry: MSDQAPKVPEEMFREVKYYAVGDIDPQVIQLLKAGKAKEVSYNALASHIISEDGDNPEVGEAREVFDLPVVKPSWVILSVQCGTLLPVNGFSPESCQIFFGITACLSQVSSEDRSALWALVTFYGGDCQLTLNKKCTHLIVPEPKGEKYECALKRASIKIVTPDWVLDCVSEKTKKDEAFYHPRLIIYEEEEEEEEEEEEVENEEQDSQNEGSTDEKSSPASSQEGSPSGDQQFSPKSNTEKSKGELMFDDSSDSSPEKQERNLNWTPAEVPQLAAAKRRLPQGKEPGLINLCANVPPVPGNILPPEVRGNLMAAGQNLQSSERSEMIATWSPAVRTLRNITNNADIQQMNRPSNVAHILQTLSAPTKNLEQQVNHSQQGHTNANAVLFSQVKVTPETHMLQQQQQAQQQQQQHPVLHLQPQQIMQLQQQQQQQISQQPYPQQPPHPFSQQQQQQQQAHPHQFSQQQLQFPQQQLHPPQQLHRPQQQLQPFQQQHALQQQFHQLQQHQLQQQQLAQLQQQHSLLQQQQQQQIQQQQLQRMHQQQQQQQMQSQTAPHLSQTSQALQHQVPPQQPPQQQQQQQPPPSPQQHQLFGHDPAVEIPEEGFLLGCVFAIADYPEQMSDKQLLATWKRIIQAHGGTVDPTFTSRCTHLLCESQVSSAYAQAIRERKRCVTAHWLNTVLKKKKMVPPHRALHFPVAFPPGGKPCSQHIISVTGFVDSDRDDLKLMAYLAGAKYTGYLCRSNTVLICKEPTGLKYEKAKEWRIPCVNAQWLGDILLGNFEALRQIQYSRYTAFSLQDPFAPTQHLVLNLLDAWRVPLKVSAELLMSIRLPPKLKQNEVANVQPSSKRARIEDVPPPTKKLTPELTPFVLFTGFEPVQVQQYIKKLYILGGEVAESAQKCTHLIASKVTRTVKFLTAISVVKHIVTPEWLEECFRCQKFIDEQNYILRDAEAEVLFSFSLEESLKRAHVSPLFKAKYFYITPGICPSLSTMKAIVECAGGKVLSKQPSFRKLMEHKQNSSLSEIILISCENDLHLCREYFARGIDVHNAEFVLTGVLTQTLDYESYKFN
SDC2, P34741, UniProt P34741, whole entry: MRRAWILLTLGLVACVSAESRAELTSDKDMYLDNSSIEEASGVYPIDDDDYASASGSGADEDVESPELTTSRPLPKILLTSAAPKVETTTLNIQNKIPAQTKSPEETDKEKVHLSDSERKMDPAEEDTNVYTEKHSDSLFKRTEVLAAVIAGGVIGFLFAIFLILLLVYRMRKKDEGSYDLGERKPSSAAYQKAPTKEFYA

Legend:
Test in all cases: PRISMA enrichment of interactor (LFQ) in peptide spot vs all other peptide spots (log2 fold change); higher = stronger / more specific binding of the interactor to the peptide
[1] = molecular target: ARF1, P84077
Description: (§1)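 PRISMA: 15-aa overlapping tiles (offset 8 aa) of 60 microproteins, plus SOS1/GLUT1 control peptides, were spot-synthesized on cellulose membranes in triplicate. Membranes were incubated with benzonase-treated HEK293T lysate, and bound proteins were identified by LC-MS/MS with LFQ. Enrichment is the log2 fold change of each protein in one spot versus all other spots. Only interactors passing the significance cutoff are listed.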

[2] = molecular target: CHMP1A, Q9HD42
Description: as §1

[3] = molecular target: DHCR24, Q15392
Description: as §1

[4] = molecular target: EIF3K, Q9UBQ5
Description: as §1

[5] = molecular target: ELOC, Q15369
Description: as §1

[6] = molecular target: FAM91A1, Q658Y4
Description: as §1

[7] = molecular target: FAM98B, Q52LJ0
Description: as §1

[8] = molecular target: GTF2H5, Q6ZYL4
Description: as §1

[9] = molecular target: NOL12, Q9UGY1
Description: as §1

[10] = molecular target: PDCD11, Q14690
Description: as §1

[11] = molecular target: PGRMC1, O00264
Description: as §1

[12] = molecular target: ARCN1, P48444
Description: as §1

[13] = molecular target: ATXN7L3B, Q96GX2
Description: as §1

[14] = molecular target: AURKAIP1, Q9NWT8
Description: as §1

[15] = molecular target: BCAP31, P51572
Description: as §1

[16] = molecular target: CAMK2D, Q13557
Description: as §1

[17] = molecular target: CKMT1A, P12532
Description: as §1

[18] = molecular target: EFTUD2, Q15029
Description: as §1

[19] = molecular target: HP, P00738
Description: as §1

[20] = molecular target: LSM14A, Q8ND56
Description: as §1

[21] = molecular target: MAPK1, P28482
Description: as §1

[22] = molecular target: METAP1, P53582
Description: as §1

[23] = molecular target: MRPL40, Q9NQ50
Description: as §1

[24] = molecular target: NKRF, O15226
Description: as §1

[25] = molecular target: PAXIP1, Q6ZW49
Description: as §1

[26] = molecular target: POLR2D, O15514
Description: as §1

[27] = substrate: PPIF, P30405
Description: as §1

[28] = molecular target: RAB21, Q9UL25
Description: as §1

[29] = molecular target: RBM27, Q9P2N5
Description: as §1

[30] = molecular target: RIF1, Q5UIP0
Description: as §1

[31] = molecular target: RMDN3, Q96TC7
Description: as §1

[32] = molecular target: SDC2, P34741
Description: as §1

[33] = molecular target: THOC3, Q96J01
Description: as §1

[34] = molecular target: WDR5, P61964
Description: as §1

Binder	PRISMA enrichment of interactor (log2) [1]	PRISMA enrichment of interactor (log2) [2]	PRISMA enrichment of interactor (log2) [3]	PRISMA enrichment of interactor (log2) [4]	PRISMA enrichment of interactor (log2) [5]	PRISMA enrichment of interactor (log2) [6]	PRISMA enrichment of interactor (log2) [7]	PRISMA enrichment of interactor (log2) [8]	PRISMA enrichment of interactor (log2) [9]	PRISMA enrichment of interactor (log2) [10]	PRISMA enrichment of interactor (log2) [11]	PRISMA enrichment of interactor (log2) [12]	PRISMA enrichment of interactor (log2) [13]	PRISMA enrichment of interactor (log2) [14]	PRISMA enrichment of interactor (log2) [15]	PRISMA enrichment of interactor (log2) [16]	PRISMA enrichment of interactor (log2) [17]	PRISMA enrichment of interactor (log2) [18]	PRISMA enrichment of interactor (log2) [19]	PRISMA enrichment of interactor (log2) [20]	PRISMA enrichment of interactor (log2) [21]	PRISMA enrichment of interactor (log2) [22]	PRISMA enrichment of interactor (log2) [23]	PRISMA enrichment of interactor (log2) [24]	PRISMA enrichment of interactor (log2) [25]	PRISMA enrichment of interactor (log2) [26]	PRISMA enrichment of interactor (log2) [27]	PRISMA enrichment of interactor (log2) [28]	PRISMA enrichment of interactor (log2) [29]	PRISMA enrichment of interactor (log2) [30]	PRISMA enrichment of interactor (log2) [31]	PRISMA enrichment of interactor (log2) [32]	PRISMA enrichment of interactor (log2) [33]	PRISMA enrichment of interactor (log2) [34]
TPEELFHPLGADSQ [GLUT1_WT_2]	5.15	5.47	5.44	4.93	4	4.88	8.26	4.03	4.91	6.57	5.68	–	–	–	–	–	–	–	–	–	–	–	–	–	–	–	–	–	–	–	–	–	–	–
PLPDSASFQKEDVVS [PSMB8-AS1]	–	–	–	–	–	–	–	–	–	–	–	4.87	5.52	4.62	4.47	8.05	3.98	4.59	5.3	4.35	6.77	4.55	4.8	6.89	8.45	5.71	6.15	3.99	4.36	6.93	7.79	4.81	5.2	5.2
